No constants are given. Whether binding was seen depends on the method and setting. Some results given as binding are weak or reduced against the parent protein; the word gives no strength.
B1: F10-IgG1 (antibody, V domains shown)
VH: QVQLVQSGAEVKKPGSSVKVSCTSSEVTFSSFAISWVRQAPGQGLEWLGGISPMFGTPNYAQKFQGRVTITADQSTRTAYMDLRSLRSEDTAVYYCARSPSYICSGGTCVFDHWGQGTLVTVSS
VL: QPGLTQPPSVSKGLRQTATLTCTGNSNNVGNQGAAWLQQHQGHPPKLLSYRNNDRPSGISERFSASRSGNTASLTITGLQPEDEADYYCSTWDSSLSAVVFGGGTKLTVL
B2: D8-IgG1 (antibody, V domains shown)
VH: QVQLVQSGAEVKKPGSSVKVSCKASGGTFSAYAFTWVRQAPGQGLEWMGGITGMFGTANYAQKFQGRVTITADELTSTAYMELSSLTSEDTALYYCARGLYYYESSLDYWGQGTLVTVSS
VL: QSVLTQPPSASGSPGQSVTISCTGTSSDVGGYNSVSWYQQHPGKAPKLMIYEVTKRPSGVPDRFSASKSGNTASLTVSGLQAEDEADYFCCSYAGHSAYVFGTGTKVTVL

The chains behind the UniProt entries cited, without tags or fusion partners. Where a name states a change or a piece, a line headed by the entry shows the natural chain unless it says otherwise. Residues count along the entry.
UniProt P03452, residues 18-565: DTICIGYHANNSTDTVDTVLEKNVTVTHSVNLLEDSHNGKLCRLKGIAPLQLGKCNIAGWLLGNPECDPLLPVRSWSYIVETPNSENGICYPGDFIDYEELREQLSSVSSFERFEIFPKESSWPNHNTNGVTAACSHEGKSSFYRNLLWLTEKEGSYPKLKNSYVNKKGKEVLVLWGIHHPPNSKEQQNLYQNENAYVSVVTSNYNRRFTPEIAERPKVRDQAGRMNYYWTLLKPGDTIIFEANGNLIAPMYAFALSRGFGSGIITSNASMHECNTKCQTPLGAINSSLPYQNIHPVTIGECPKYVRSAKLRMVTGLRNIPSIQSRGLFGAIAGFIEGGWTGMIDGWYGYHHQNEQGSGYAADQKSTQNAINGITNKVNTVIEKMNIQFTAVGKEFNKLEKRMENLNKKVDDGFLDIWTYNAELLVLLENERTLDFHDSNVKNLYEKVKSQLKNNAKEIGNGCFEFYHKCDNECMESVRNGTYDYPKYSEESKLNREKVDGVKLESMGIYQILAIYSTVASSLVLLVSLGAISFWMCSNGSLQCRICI
UniProt P03456: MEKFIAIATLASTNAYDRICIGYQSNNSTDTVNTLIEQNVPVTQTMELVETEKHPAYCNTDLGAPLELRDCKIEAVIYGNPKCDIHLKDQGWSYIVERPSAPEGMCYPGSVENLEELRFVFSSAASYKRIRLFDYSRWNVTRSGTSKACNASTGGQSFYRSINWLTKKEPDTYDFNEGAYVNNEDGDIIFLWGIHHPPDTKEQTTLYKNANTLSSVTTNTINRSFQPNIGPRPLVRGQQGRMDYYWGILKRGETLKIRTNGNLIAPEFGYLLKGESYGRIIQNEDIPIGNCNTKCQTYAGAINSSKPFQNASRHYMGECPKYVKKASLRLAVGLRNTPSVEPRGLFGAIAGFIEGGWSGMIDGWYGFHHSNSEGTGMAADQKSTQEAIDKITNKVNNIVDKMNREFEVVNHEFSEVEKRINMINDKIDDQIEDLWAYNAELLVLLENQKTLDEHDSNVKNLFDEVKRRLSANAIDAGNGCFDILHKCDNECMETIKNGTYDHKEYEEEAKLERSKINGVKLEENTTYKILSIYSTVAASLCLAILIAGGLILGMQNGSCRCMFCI

Assays:
[1] = target: H2-JP57 full-length HA (Influenza A virus A/Japan/305/57 (H2N2)) (UniProt P03451); assay: FACS, transfected 293T cells
[2] = target: H1-PR34 full-length HA (Influenza A virus A/Puerto Rico/8/34 (H1N1)) (UniProt P03452); assay: FACS, transfected 293T cells (H1-PR34)
[3] = target: H2-JP57 full-length HA (Influenza A virus A/Japan/305/57 (H2N2)) (UniProt P03451); assay: FACS, transfected 293T cells (H2-JP57)
[4] = target: H8-ON68 full-length HA (Influenza A virus A/turkey/Ontario/6118/68) (UniProt P03456); assay: FACS, transfected 293T cells (H8-ON68)

Binder	binding [1]	binding [2]	binding [3]	binding [4]
B1	binds	binds	binds	–
B2	–	binds	–	binds
